Results on one substance are retold here after article PMC8700349.

Sequences of proteins named here, by UniProt entry; tags and fusion partners are left off. Residues count along the entry.
UniProt P16070, residues 21-742: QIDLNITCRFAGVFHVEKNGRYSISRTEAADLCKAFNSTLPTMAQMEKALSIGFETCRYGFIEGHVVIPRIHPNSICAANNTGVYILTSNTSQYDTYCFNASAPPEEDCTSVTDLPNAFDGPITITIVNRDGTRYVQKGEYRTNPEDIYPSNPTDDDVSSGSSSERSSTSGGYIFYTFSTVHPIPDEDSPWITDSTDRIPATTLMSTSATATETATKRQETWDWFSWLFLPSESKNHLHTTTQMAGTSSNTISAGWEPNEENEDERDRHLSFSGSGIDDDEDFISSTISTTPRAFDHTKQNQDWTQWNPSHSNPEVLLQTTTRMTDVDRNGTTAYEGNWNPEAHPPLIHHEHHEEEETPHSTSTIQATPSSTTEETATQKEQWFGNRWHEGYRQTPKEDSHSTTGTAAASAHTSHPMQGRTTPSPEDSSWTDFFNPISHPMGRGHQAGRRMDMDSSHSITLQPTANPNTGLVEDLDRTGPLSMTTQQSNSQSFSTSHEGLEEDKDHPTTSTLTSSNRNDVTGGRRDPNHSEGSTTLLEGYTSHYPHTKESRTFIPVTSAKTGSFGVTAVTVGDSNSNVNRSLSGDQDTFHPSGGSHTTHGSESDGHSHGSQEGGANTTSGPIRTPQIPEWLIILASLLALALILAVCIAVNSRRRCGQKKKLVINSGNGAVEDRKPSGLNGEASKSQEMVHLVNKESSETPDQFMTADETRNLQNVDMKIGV

The assay has as its target T1, C6S specific binding peptide.
T1 sequence (peptide, biotin on the N-terminus): EKRIWFPYRRF
The experiment in a line: pull-down; biotinylated C6S-p mixed with 0.8 mg A172 cell lysate, 4 °C, 16 h; streptavidin beads 3 h; Western blot for CD44; only the target purified. (Immunoblotting shows a protein as a band on a membrane.)

These are yes or no findings as the source states them, for the method shown. In cells and extracts the contact can be indirect. Some binding calls cover weakened binding; strength is not graded here.

For the substance CD44 (from UniProt P16070 21-742), the binding entry is given as “binds”.
